## Cleaved PARP after 72 h of treatment

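Human melanoma cell lines in 1,536-well plates were treated with two drugs together for 72 h, then fixed, stained and imaged. Values are the share of nuclei positive for cleaved PARP as a percentage of the same share in the DMSO control: 100 is the control level, higher means more apoptosis. Every drug was used at one fixed concentration, the higher of two screened. The file gives one value for each pair and line, without errors, so small differences may be noise. The marker varies much from line to line, for technical or biological reasons.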
Only some of the drugs and lines screened are listed, without regard to their results.
A dash means that no value is listed here.

All values are for the listed drug together with ZM336372 (10 µM): Cc1ccc(NC(=O)c2cccc(N(C)C)c2)cc1NC(=O)c1ccc(O)cc1

| Second drug | G-361 | A101D | RVH-421 | A2058 | A375 | SK-MEL-30 | WM3526 | WM3619 | SK-MEL-2 | IST-MEL1 |
|---|---|---|---|---|---|---|---|---|---|---|
| Nc1ccn([C@@H]2O[C@H](CO)[C@@H](O)C2(F)F)c(=O)n1 at 0.002 µM | 103 | 139 | 116 | 137 | - | 40.5 | 127 | 170 | 41.3 | 216 |
| C[C@]1(c2nc3c(C(N)=O)cccc3[nH]2)CCCN1 at 7 µM | 69.4 | 135 | 28.1 | 97.3 | - | 121 | 155 | 103 | 139 | 212 |
| O=c1[nH]nc(Sc2ncc([N+](=O)[O-])s2)n1-c1ccc2c(c1)OCCO2 at 1 µM | 185 | 334 | 278 | 106 | - | 193 | 87.3 | 91.6 | 75.2 | 206 |
| N#CC[C@H](C1CCCC1)n1cc(-c2ncnc3[nH]ccc23)cn1 at 5 µM | 175 | 42.7 | 160 | 94.3 | - | 28.5 | 141 | 94.3 | 60.7 | 44.1 |
| Cc1cc(SCc2sc(-c3ccc(C(F)(F)F)c(F)c3)nc2C)ccc1OCC(=O)O at 10 µM | 131 | 128 | 76.7 | 62.9 | 96.3 | 20.2 | 159 | 102 | 153 | 139 |
| Cn1nnc2c(C(N)=O)ncn2c1=O at 10 µM | 69.4 | 342 | 35.2 | 539 | - | 135 | 57.6 | 85.4 | 86.6 | 197 |
| COc1cc([C@@H]2c3cc4c(cc3[C@@H](O[C@@H]3O[C@@H]5CO[C@@H](C)O[C@H]5[C@H](O)[C@H]3O)[C@H]3COC(=O)[C@H]23)OCO4)cc(OC)c1O at 0.1 µM | 128 | 33.3 | 55.6 | - | - | 90.3 | 86.1 | 471 | 91.3 | 27.6 |
| Cn1c(Nc2ccc(C(F)(F)F)cc2)nc2cc(Oc3ccnc(-c4ncc(C(F)(F)F)[nH]4)c3)ccc21 at 0.4 µM | 503 | 95.3 | 176 | 298 | - | 129 | 849 | 173 | 132 | 85.4 |
| COCC[n+]1c2c(n(Cc3cnccn3)c1C)C(=O)c1ccccc1C2=O at 0.002 µM | 130 | 302 | 123 | 574 | - | 94.8 | 892 | 234 | 574 | 572 |
| Nc1cccc2c1CN(C1CCC(=O)NC1=O)C2=O (stereo unspecified) at 5 µM | 70.7 | 93.7 | 69.4 | 235 | - | 36.8 | 132 | 86.5 | 50.6 | 463 |
| O=C(Oc1ccc([N+](=O)[O-])cc1)N1CCC(C(O)(c2ccc3c(c2)OCO3)c2ccc3c(c2)OCO3)CC1 at 5 µM | 88.6 | 125 | 59.2 | 99.4 | 42.5 | 50.2 | 176 | 112 | 94.1 | 60.5 |
| Clc1ccc(Nc2nnc(Cc3ccncc3)c3ccccc23)cc1 at 10 µM | 326 | 202 | 59.7 | 60.3 | - | 65.3 | 260 | 255 | 108 | 344 |
| Cc1cc([N+](=O)[O-])ccc1NS(=O)(=O)c1cc(Cl)ccc1Cl at 5 µM | 321 | 253 | 549 | 92.8 | 162 | 111 | 112 | 119 | 96.6 | 201 |
| Nc1ncn([C@H]2C[C@H](O)[C@@H](CO)O2)c(=O)n1 at 0.5 µM | 70.5 | 54.1 | 47.2 | 200 | - | 64.7 | 94.0 | 115 | 54.8 | 107 |
| CC1(C)NC(=O)N(c2ccc([N+](=O)[O-])c(C(F)(F)F)c2)C1=O at 5 µM | 140 | 95.4 | 160 | 81.8 | - | 67.0 | 76.0 | 88.3 | 28.1 | 132 |
| C[C@@H](Oc1cc(-c2cnn(C3CCNCC3)c2)cnc1N)c1c(Cl)ccc(F)c1Cl at 1 µM | 98.1 | 297 | 180 | 172 | - | 118 | 170 | 106 | 125 | 204 |
| O=S(=O)(c1ccccc1)N(CC(F)(F)F)c1ccc(C(O)(C(F)(F)F)C(F)(F)F)cc1 at 7 µM | 229 | 57.8 | 164 | 128 | 117 | 73.8 | 106 | 108 | 137 | 101 |
| C=C(c1ccc(C(=O)O)cc1)c1cc2c(cc1C)C(C)(C)CCC2(C)C at 10 µM | 314 | 298 | 161 | 56.8 | - | 42.3 | 118 | 124 | 140 | 63.9 |
| C[C@@H](N)c1ccc(C(=O)Nc2ccnc3[nH]ccc23)cc1 at 2 µM | 219 | 57.0 | 226 | 152 | - | 233 | 142 | 99.8 | 163 | 116 |
| CO[C@@H]1[C@H](N(C)C(=O)c2ccccc2)C[C@H]2O[C@]1(C)n1c3ccccc3c3c4c(c5c6ccccc6n2c5c31)C(=O)NC4 at 0.4 µM | 406 | 169 | 55.4 | 442 | - | 131 | 332 | 134 | 187 | 129 |
| CCCCCCCCCCCC1=C(O)C(=O)C=C(O)C1=O at 6 µM | 77.5 | 57.1 | 187 | 136 | 58.0 | 106 | 106 | 120 | 114 | 49.5 |

2 of the entries, repeated:

Second drug	G-361	A101D	RVH-421	A2058	A375	SK-MEL-30	WM3526	WM3619	SK-MEL-2	IST-MEL1
Cc1cc(SCc2sc(-c3ccc(C(F)(F)F)c(F)c3)nc2C)ccc1OCC(=O)O at 10 µM	131	128	76.7	62.9	96.3	20.2	159	102	153	139
Nc1ccn([C@@H]2O[C@H](CO)[C@@H](O)C2(F)F)c(=O)n1 at 0.002 µM	103	139	116	137	-	40.5	127	170	41.3	216

From a melanoma drug combination screen (doi:10.1371/journal.pone.0140310); values rounded.